Results from article PMC3948876.
Results are given in words; binding and its absence hold for the method and conditions named. In cells and extracts the contact can be indirect. For part of these data: Binding calls can cover weak binding; strength is not graded here. Tags and fused reporters may be left off the sequences shown.

T1: full-length FLAG-human PIASγ (human) (UniProt Q8N2W9)
T1 sequence: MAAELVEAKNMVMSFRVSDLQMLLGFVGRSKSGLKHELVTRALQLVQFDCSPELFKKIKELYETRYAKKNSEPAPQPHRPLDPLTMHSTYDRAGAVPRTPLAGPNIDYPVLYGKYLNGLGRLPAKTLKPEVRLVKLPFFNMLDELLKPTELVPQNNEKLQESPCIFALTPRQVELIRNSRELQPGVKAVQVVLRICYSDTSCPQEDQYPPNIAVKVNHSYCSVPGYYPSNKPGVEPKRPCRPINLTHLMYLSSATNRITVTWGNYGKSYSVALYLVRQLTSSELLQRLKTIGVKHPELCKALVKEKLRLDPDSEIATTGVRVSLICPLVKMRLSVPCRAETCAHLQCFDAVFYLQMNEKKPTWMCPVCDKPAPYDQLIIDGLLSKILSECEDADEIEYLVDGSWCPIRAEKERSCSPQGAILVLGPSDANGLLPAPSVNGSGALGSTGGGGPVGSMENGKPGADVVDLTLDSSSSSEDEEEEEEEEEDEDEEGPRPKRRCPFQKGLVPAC


Assays:
[1] = molecular target: T1, full-length FLAG-human PIASγ (human); assay: co-IP; reverse: HEK293T co-transfected; anti-FLAG antibody on Protein A agarose; NEM in the lysis buffer; Western blot
[2] = molecular target: full-length mouse tomosyn-m1 with C-terminal mycHis tag (mouse); assay: co-IP; HEK293T co-transfected; anti-myc antibody on Protein A agarose; no NEM in the lysis buffer; low and high salt washes; Western blot
[3] = molecular target: full-length mouse tomosyn-m1 with C-terminal mycHis tag (mouse); assay: co-IP; HEK293T co-transfected; anti-myc antibody on Protein A agarose; 20 mM NEM in the lysis buffer; low (100 mM NaCl) and high (500 mM NaCl) salt washes; Western blot

| binding [1] | binding [3] | Molecule | binding [2] |
| --- | --- | --- | --- |
| binds weakly | – | full-length mouse tomosyn-m1 with C-terminal mycHis tag | – |
| – | binds | full-length FLAG-human PIASγ (enzyme, UniProt Q8N2W9 1-510) MAAELVEAKNMVMSFRVSDLQMLLGFVGRSKSGLKHELVTRALQLVQFDCSPELFKKIKELYETRYAKKNSEPAPQPHRPLDPLTMHSTYDRAGAVPRTPLAGPNIDYPVLYGKYLNGLGRLPAKTLKPEVRLVKLPFFNMLDELLKPTELVPQNNEKLQESPCIFALTPRQVELIRNSRELQPGVKAVQVVLRICYSDTSCPQEDQYPPNIAVKVNHSYCSVPGYYPSNKPGVEPKRPCRPINLTHLMYLSSATNRITVTWGNYGKSYSVALYLVRQLTSSELLQRLKTIGVKHPELCKALVKEKLRLDPDSEIATTGVRVSLICPLVKMRLSVPCRAETCAHLQCFDAVFYLQMNEKKPTWMCPVCDKPAPYDQLIIDGLLSKILSECEDADEIEYLVDGSWCPIRAEKERSCSPQGAILVLGPSDANGLLPAPSVNGSGALGSTGGGGPVGSMENGKPGADVVDLTLDSSSSSEDEEEEEEEEEDEDEEGPRPKRRCPFQKGLVPAC | no binding (only without NEM in the lysis buffer) |
